Laboratory results: PubChem BioAssay AID1259254 (NCATS, 2017)
The whole screen tested about 59,000 reagents; below is a random part of them. About 1,550 of them (2.6%) count as active. 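G2 share is only a proxy for re-replication; each gene was hit by three separate siRNAs, and active genes were retested.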 Raw values vary from plate to plate and are shown uncorrected. Not given: the amount of reagent.

Screen: 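Gene knock-downs that lead to re-replication, shown by excess G2 DNA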 (primary screen)
Cells: human HCT116 colorectal cancer cells
Knock-down reagent: single siRNA against human genes
Duration: 3 days
Measurement: 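Imaged Hoechst DNA stain sorts each cell into a cycle phase by DNA amount; per plate, G2 fraction set to 0% for non-targeting and 100% for GMNN siRNA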
Direction: G2 robust z-score and G2 cells, % of GMNN control: higher = more G2 cells, more excess DNA replication; raw share of cells in G2: higher = larger share of cells with G2 DNA content
Call rule: 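Active siRNAs have a G2 robust z of 5 or more median absolute deviations over the median, which in these data means about 38% or higher of GMNN control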

G2 robust z-score | G2 cells, % of GMNN control | raw share of cells in G2 (%) | Outcome | target gene | PubChem SID
-0.642 | -1.55 | 5.02 | inactive | ARL6IP5 | SID160728704
-0.614 | -1.35 | 5.95 | inactive | ARL6IP5 | SID160728706
0.317 | 5.2 | 5.52 | inactive | ARL6IP5 | SID160730447
1.4 | 12.8 | 8.12 | inactive | A2ML1 | SID160758171
0.498 | 6.47 | 4.91 | inactive | A2ML1 | SID160758172
-0.695 | -1.92 | 2.4 | inactive | A2ML1 | SID160758173
0.638 | 7.46 | 8.43 | inactive | MGAT1 | SID160777197
6.07 | 45.7 | 23 | active | MGAT1 | SID160777198
0.834 | 8.83 | 6.11 | inactive | MGAT1 | SID160777199
0.154 | 4.05 | 5.05 | inactive | SKA3 | SID160761610
-0.0572 | 2.57 | 4.01 | inactive | SKA3 | SID160761611
0.514 | 6.58 | 5.29 | inactive | SKA3 | SID160761612
3.94 | 30.7 | 16.5 | inactive | TMEM179B | SID160733154
0.62 | 7.33 | 6.5 | inactive | TMEM179B | SID160765264
4.86 | 37.2 | 19.5 | inactive | TMEM179B | SID160765265
1.76 | 15.4 | 11.1 | inactive | GLRX | SID160771607
0.0318 | 3.19 | 4.79 | inactive | GLRX | SID160771616
1.41 | 12.9 | 9.9 | inactive | GLRX | SID160771625
-0.497 | -0.528 | 3.47 | inactive | FUT5 | SID160723770
-1.55 | -7.96 | 2.34 | inactive | FUT5 | SID160767829
-0.355 | 0.466 | 5.44 | inactive | FUT5 | SID160767840
-0.578 | -1.1 | 3.65 | inactive | ERP27 | SID160755907
4.25 | 32.9 | 13.1 | inactive | ERP27 | SID160755908
0.264 | 4.82 | 3.23 | inactive | ERP27 | SID160755909
0.744 | 8.2 | 8.22 | inactive | GNA15 | SID160730982
0.961 | 9.73 | 8.96 | inactive | GNA15 | SID160771850
0.00716 | 3.02 | 4.73 | inactive | GNA15 | SID160771858
-0.454 | -0.226 | 3.52 | inactive | RBM46 | SID160760234
2.01 | 17.1 | 8.7 | inactive | RBM46 | SID160760235
-0.476 | -0.383 | 2.64 | inactive | RBM46 | SID160760236
-0.253 | 1.19 | 4.57 | inactive | CMTM3 | SID160756126
-0.631 | -1.47 | 2.89 | inactive | CMTM3 | SID160756127
-0.235 | 1.31 | 2.2 | inactive | CMTM3 | SID160756128
1.09 | 10.6 | 8.17 | inactive | ZNF575 | SID160763271
1.8 | 15.6 | 12.7 | inactive | ZNF575 | SID160763272
-0.0416 | 2.67 | 6 | inactive | ZNF575 | SID160763273
-0.636 | -1.51 | 4.14 | inactive | SLC4A8 | SID160722351
0.0748 | 3.49 | 6.52 | inactive | SLC4A8 | SID160722353
-0.64 | -1.53 | 2.68 | inactive | SLC4A8 | SID160722354
0.538 | 6.75 | 7.54 | inactive | UBE2F | SID160730632
-1.22 | -5.64 | 3.27 | inactive | UBE2F | SID160757882
1.86 | 16 | 10.6 | inactive | UBE2F | SID160757883
1.91 | 16.4 | 9.48 | inactive | GPHA2 | SID160760430
-0.499 | -0.547 | 2.78 | inactive | GPHA2 | SID160760431
2.69 | 21.9 | 9.69 | inactive | GPHA2 | SID160760432
-0.951 | -3.72 | 2.87 | inactive | SLC10A7 | SID160751663
0.0185 | 3.1 | 4.38 | inactive | SLC10A7 | SID160751664
0.0591 | 3.38 | 3.43 | inactive | SLC10A7 | SID160751665
-0.196 | 1.59 | 3.35 | inactive | ZNF671 | SID160749709
-0.576 | -1.08 | 5.42 | inactive | ZNF671 | SID160749710
-0.567 | -1.02 | 3.31 | inactive | ZNF671 | SID160749711
3.63 | 28.5 | 17.1 | inactive | RPL21 | SID160716061
1.6 | 14.2 | 9.83 | inactive | RPL21 | SID160716062
2.91 | 23.5 | 11.8 | inactive | RPL21 | SID160716063
0.144 | 3.98 | 7.97 | inactive | RIGI | SID160730865
-0.117 | 2.14 | 4.6 | inactive | RIGI | SID160736616
0.432 | 6.01 | 6.17 | inactive | RIGI | SID160736617
0.144 | 3.98 | 5.09 | inactive | NCR3 | SID160762577
-0.699 | -1.95 | 2.29 | inactive | NCR3 | SID160762578
1.14 | 11 | 6.62 | inactive | NCR3 | SID160762579
12.8 | 93.3 | 39.5 | active | GMNN | SID160739924
19.4 | 139 | 57.3 | active | GMNN | SID160739925
8.44 | 62.3 | 22.9 | active | GMNN | SID160739926
-0.603 | -1.27 | 4.54 | inactive | PLGLB2 | SID160714471
0.683 | 7.77 | 7.65 | inactive | PLGLB2 | SID160714472
-0.315 | 0.754 | 4.4 | inactive | PLGLB2 | SID160714473
1.33 | 12.3 | 7.02 | inactive | LYPD2 | SID160732490
-0.343 | 0.557 | 2.78 | inactive | LYPD2 | SID160732491
-1.34 | -6.48 | 1.73 | inactive | LYPD2 | SID160757529

7 of these entries in another layout.
SKA3 [SID160761611]
- G2 robust z-score: -0.0572
- G2 cells, % of GMNN control: 2.57
- raw share of cells in G2 (%): 4.01
- Outcome: inactive

SKA3 [SID160761612]
- G2 robust z-score: 0.514
- G2 cells, % of GMNN control: 6.58
- raw share of cells in G2 (%): 5.29
- Outcome: inactive

TMEM179B [SID160733154]
- G2 robust z-score: 3.94
- G2 cells, % of GMNN control: 30.7
- raw share of cells in G2 (%): 16.5
- Outcome: inactive

TMEM179B [SID160765264]
- G2 robust z-score: 0.62
- G2 cells, % of GMNN control: 7.33
- raw share of cells in G2 (%): 6.5
- Outcome: inactive

TMEM179B [SID160765265]
- G2 robust z-score: 4.86
- G2 cells, % of GMNN control: 37.2
- raw share of cells in G2 (%): 19.5
- Outcome: inactive

GLRX [SID160771607]
- G2 robust z-score: 1.76
- G2 cells, % of GMNN control: 15.4
- raw share of cells in G2 (%): 11.1
- Outcome: inactive

GLRX [SID160771616]
- G2 robust z-score: 0.0318
- G2 cells, % of GMNN control: 3.19
- raw share of cells in G2 (%): 4.79
- Outcome: inactive
